# Data source: PubChem BioAssay AID1508597 (Cure First, 2020)
# Assay: 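Genes whose silencing sensitises or protects ovarian cancer cells against rucaparib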 (primary screen)
# Cells: human ovarian carcinoma lines grown from tumours: OCI-P5x (papillary serous) and OCI-C5x (clear cell)
# Reagents: siRNA pool against human genes, 1.25 pmol siRNA per well
# Duration: 72 h or 96 h, depending on the cell culture
# Challenge: rucaparib 20 µM (about IC30) or vehicle, present until read-out
# Rucaparib or vehicle: Vehicle
# Cell line: OCI-P5x (serous)
# Detection: 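Luminescent ATP-based viability assay read 72 or 96 h after transfection, depending on culture, given as normalised percent viability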
# Scale: viability, normalised: higher = more viable cells remaining
# Rule for the call: 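a well counts as a hit if its normalised viability is under 80 percent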
# Meaning of the calls: active = viability under 80%; inactive = viability 80% or more
# This is an unselected part of the about 2,100 reagents, under one of the conditions tested. 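Calls flag viability under 80% in either arm, not effects specific to rucaparib; the reference for percent is not stated.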 Entries without a mark were called inactive. Reagents against one gene are numbered here. A reagent listed more than once was tested more than once; the source does not tell the runs apart. Reagent sequences are not shown. Not stated in the record: the 100% reference.
gene,reagent no.,technical replicate,"viability, normalised (%)"
SKIC2,1,1,65.5 (active)
SKIC2,1,2,72.2 (active)
SKIC2,1,3,81.3
PHF12,1,1,64.8 (active)
PHF12,1,2,57.4 (active)
PHF12,1,3,61.5 (active)
RAD51D,1,1,31.3 (active)
RAD51D,1,2,66.1 (active)
RAD51D,1,3,74.2 (active)
RAD51D,2,1,44.3 (active)
RAD51D,2,2,65.5 (active)
RAD51D,2,3,56.3 (active)
BCL2L1,1,1,72.9 (active)
BCL2L1,1,1,72.2 (active)
BCL2L1,1,2,59.7 (active)
BCL2L1,1,2,67.8 (active)
BCL2L1,1,3,56.3 (active)
BCL2L1,1,3,71.1 (active)
PIK3CB,1,1,48 (active)
PIK3CB,1,2,48.4 (active)
PIK3CB,1,3,52.5 (active)
PRMT3,1,1,76.6 (active)
PRMT3,1,2,77.8 (active)
PRMT3,1,3,105
GRK4,1,1,67.8 (active)
GRK4,1,2,50.7 (active)
GRK4,1,3,80.6
DHX58,1,1,65.4 (active)
DHX58,1,2,76.6 (active)
DHX58,1,3,67.9 (active)
INTS3,1,1,72.1 (active)
INTS3,1,2,92.2
INTS3,1,3,75.3 (active)
APEX2,1,1,66.4 (active)
APEX2,1,2,73.3 (active)
APEX2,1,3,74 (active)
PARP1,1,1,67.8 (active)
PARP1,1,1,57.7 (active)
PARP1,1,2,58 (active)
PARP1,1,2,56.4 (active)
PARP1,1,3,64.9 (active)
PARP1,1,3,63.9 (active)
IFNAR2,1,1,99
IFNAR2,1,2,86.9
IFNAR2,1,3,102
GNPAT,1,1,52.5 (active)
GNPAT,1,2,58.5 (active)
GNPAT,1,3,64.3 (active)
PFKFB2,1,1,64.1 (active)
PFKFB2,1,2,62.8 (active)
PFKFB2,1,3,62.3 (active)
EPC2,1,1,66.1 (active)
EPC2,1,2,73.7 (active)
EPC2,1,3,79.6 (active)
TDG,1,1,98.5
TDG,1,2,89.3
TDG,1,3,81.1

Targets listed so far whose target name begins with A or a:
gene,reagent no.,technical replicate,"viability, normalised (%)"
APEX2,1,1,66.4 (active)
APEX2,1,2,73.3 (active)
APEX2,1,3,74 (active)
